Source: paper PMC9881170
For at least one entry, the source does not settle the construct or the ends of the probe. For part of these data: A negative result means that nothing was seen under these conditions.

Tests used:
Test in all cases: sucrose gradient co-sedimentation, Cy3 fluorescence
[1] = test system: 28S mitoribosomal small subunit + mtIF2 + mtIF3; details: + fMet-tRNAfMet; 200 nM 55S or 28S, 240 nM mtIF2, 240 nM mtIF3, 240 nM fMet-tRNAfMet, 400 nM mRNA; 37 C 30 min (then ice 15 min for mRNA binding); filter wash with 20 mM Mg2+; native protein; label: 3' Cy3
[2] = test system: 55S mitoribosome (re-associated) + mtIF2 + mtIF3; details: without fMet-tRNAfMet; 200 nM 55S or 28S, 240 nM mtIF2, 240 nM mtIF3, 240 nM fMet-tRNAfMet, 400 nM mRNA; 37 C 30 min (then ice 15 min for mRNA binding); filter wash with 20 mM Mg2+; native protein; label: 3' Cy3
[3] = test system: 55S mitoribosome, Cy5-labeled + mtIF2 + mtIF3; details: + fMet-tRNAfMet, also FCS and single-molecule Cy3/Cy5 coincidence 43 +/- 4%; 200 nM 55S or 28S, 240 nM mtIF2, 240 nM mtIF3, 240 nM fMet-tRNAfMet, 400 nM mRNA; 37 C 30 min (then ice 15 min for mRNA binding); filter wash with 20 mM Mg2+; native protein; label: 3' Cy3

“AUGGCACAUGCAGCGCAAGUAGGUCUACAA [MTCO2 mRNA first 30 nt]”: no binding [1]; no binding [2]; binds [3].
